# Test results from publication PMC12699179, “Investigating Metal and Fluorophore Controlled Intracellular Localization in Noble Metal Thiosemicarbazone Complexes” (Chemistry (Weinheim an Der Bergstrasse, Germany), 2025).
# “And” between values parts separate entries of the source, which are not always exact repeats. Equal entries are not always repeated.
# Key:
# HeLa cells [1] = experiment: Live-cell confocal microscopy, colocalization with organelle trackers; assay type: cell-based; conditions: 10 µM; for subcellular localization pattern: 6 hours and 24 hours, confocal microscopy
# Protocol: The subcellular behavior of the compounds was then assessed using a confocal microscope following incubation with HeLa cells (10 µM) for 6 hours and 24 hours, respectively (Figures S56, S57, and 5, 6). Moreover, we performed colocalization experiments with appropriate commercial organelle tracking dyes. As controls, we used the methyl and ethyl esters of 1 and 2, 1‐OMe and 2‐OEt, respectively. […] Moreover, the Pearson Correlation Coefficients (PCC) between 6 and the commercial lysosome tracker (LysoTracker deep red) channel improved over time from 0.63 to 0.81. Additionally, the distribution was distinct from 2‐OEt, corroborating that the Dp44mT scaffold directed the localization of the conjugates. Therefore, attaching BODIPY had no discernible effect on the lysosomal accumulation of Dp44mT.
# Figure S55: Excitation (Exc) and emission (Em) spectra of BODIPY conjugates 6 and 7 at 10 µM in water. For (A) 6 and (B) 7a compounds, λex = 502 nm and λem = 519 nm; Slitwidth: […]; Sensitivity: low and medium, respectively. For (C) 7b and (D) 7c, λex = 519 nm and λem = 519 nm; Slitwidth: 5 mm; Sensitivity: medium
# Live-cell imaging was carried out in 8-well cell culture chamber slides from ibidi at a starting density of 20000 cells per well in 200 µL of culture medium. The cells were incubated for 24 h at 37 °C under a 10% CO2 atmosphere. Then, 100 μL media containing the respective compounds 4, 5, 6, or 7 was added to reach a final volume of 300 μL per well with a final compound concentration of 10 μM. As controls, untreated HeLa cells were prepared under the same conditions but without the active compounds. After 6 h or 24 h of incubation, as appropriate, the media was removed, and the cells were washed twice with DMEM medium without phenol red (clear medium). A clear media solution of 100 nM LysoTrackerTM Deep-Red (InvitrogenTM) (λexc/λem = 650/660 nm) or 200 nM MitoTrackerTM Deep-Red FM (InvitrogenTM) (λexc/λem = 644/665 nm) or 750 nM ER-Tracker™ Red (InvitrogenTM) (λexc/λem = 587/615 nm) was then appropriately added to the cells, and they were incubated for another 30 min at 37 °C. Afterwards, the cells were washed twice with fresh clear medium and then covered with 200 μL clear medium for the duration of the microscopic investigations. The imaging was carried out at 37 °C using a Leica TCS-SP8 confocal laser scanning microscope equipped with an unpulsed 442 nm laser and a pulsed white light laser (WLL) (470 nm – 670 nm) using hybrid PMT or SMD detectors. Compounds 4 and 5 were excited using the 442 nm laser, and the emission was collected between 470 and 490 nm. Compounds 6 and 7 were excited at 502 nm using the WLL, and the emission was collected between 515 and 530 nm. The tracker dyes were excited at the indicated wavelengths using the WLL, and the emissions were […]
# collected at the appropriate emission wavelengths. Images were acquired at 1024 x 1024 pixels and processed using LASX office program. The corresponding Pearson's Correlation Coefficients (PCCs) were calculated using Fiji (version 1.54f).[7] All experiments were repeated […]
# Figure S56: Live-cell images acquired after incubating compounds 4‒5 and the control 1-OMe with HeLa cells for 6 h, respectively, at 10 µM. […]
# and the red channel LysoTracker deep red. The merged channels and the corresponding Pearson Correlation Coefficients (PCC) ± standard deviation are shown on the right of each column.
# (1 picture or pasted object on this page, not shown here)
# HeLa cells [2] = experiment: X-ray fluorescence (XRF) imaging of subcellular Pt distribution; assay type: cell-based; conditions: 30 µM, 24 hours, XRF imaging with LysoTracker
# Description: To further validate the stark difference in the localization patterns between the coumarin‐conjugated Pt(II) complex 5b and the remaining Pt(II) (7b) and Pd(II) complexes (5c and 7c), we envisioned investigating their subcellular distributions via X‐ray fluorescence (XRF) imaging.^[ [35] ^] While XRF has been used to determine subcellular distributions of Pt complexes,^[ [36] ^] the technique has not been applied for the analysis of Pd complexes in cells, to the best of our knowledge. Nevertheless, we harnessed our experience and proceeded with the preparations for XRF samples for 2D imaging of HeLa cells (30 µM).^[ [37] ^] […]
# 12. X-ray fluorescence imaging (HeLa) […]
# imaged with a Nikon Eclipse Ti fluorescence microscope. […]
# stored in liquid nitrogen until the X-ray fluorescence measurements. […]
# samples were measured at a base pressure of ≈10−7 mbar at a sample temperature of 120 K. […]
# 2×1010 photons/s. The fluorescence signal was detected by a Rococo 2 detector (PN […]
# analyzed by peak deconvolution and fitting using the fast XRF stacking function of the software […]
# calculated using a thin film XRF reference sample "RF17-200-S4218-41 "(AXO Dresden, […]
# platinum (Pt – Lβ1), respectively. Also shown at the bottom is the X-ray fluorescence spectrum, […]
# X-ray fluorescence spectrum, which confirms the presence of Pt in the sample. […]
Structure (SMILES),"Pearson Correlation Coefficient (PCC) with LysoTracker deep red (HeLa cells [1]; 24 hours, ± standard deviation)",Pearson Correlation Coefficient (PCC) with LysoTracker deep red (HeLa cells [1]; 6 hours),subcellular localization pattern (HeLa cells [1]),subcellular distribution of Pt (HeLa cells [2]),"Pearson Correlation Coefficient (PCC) with MitoTracker (HeLa cells [1]; 24 hours, ± standard deviation)"
"COC(=O)c1cc2cc3c4c(c2oc1=O)CCCN4CCC3 [Compound 1-OMe, reference compound]",0.46 ± 0.03,–,–,–,–
"CCOC(=O)CCc1ccc2n1[B-](F)(F)[N+]1=C(C)C=C(C)C1=C2 [Compound 2-OEt, reference compound]",0.40 ± 0.10,–,–,–,–
CN(C)C(=S)NN=C(c1ccccn1)c1cccc(CCNC(=O)CCCNC(=O)c2cc3cc4c5c(c3oc2=O)CCCN5CCC4)n1 [Compound 4],0.86 ± 0.03,–,–,–,–
CN(C)C1=N[N+]2=C(c3cccc(CCNC(=O)CCCNC(=O)c4cc5cc6c7c(c5oc4=O)CCCN7CCC6)n3)c3cccc[n+]3[Au-]2([Cl])[S]1.F[P-](F)(F)(F)(F)F (stereo not drawn) [Compound 5a],0.80 ± 0.03,significantly superior to that of its ligand,localization patterns mirroring those of their ligands,–,–
CN(C)C1=N[N+]2=C(c3cccc(CCNC(=O)CCCNC(=O)c4cc5cc6c7c(c5oc4=O)CCCN7CCC6)n3)c3cccc[n+]3[Pt-2]2([Cl])[S]1 (stereo not drawn) [Compound 5b],0.78 ± 0.03,–,preferentially localized within lysosomes,colocalized with the LysoTracker,–
CC1=CC(C)=[N+]2C1=Cc1ccc(CCC(=O)NCCc3cccc(C(=NNC(=S)N(C)C)c4ccccn4)n3)n1[B-]2(F)F [Compound 6],0.81 and 0.81 ± 0.01,0.63,"localized in lysosomes, swelling them after 24 hours",–,–
CC1=CC(C)=[N+]2C1=Cc1ccc(CCC(=O)NCCc3cccc(C4=[N+]5N=C(N(C)C)[S][Au-]5([Cl])[n+]5ccccc54)n3)n1[B-]2(F)F.F[P-](F)(F)(F)(F)F (stereo not drawn) [Compound 7a],0.73 ± 0.01,–,localization patterns mirroring those of their ligands,–,–
CC1=CC(C)=[N+]2C1=Cc1ccc(CCC(=O)NCCc3cccc(C4=[N+]5N=C(N(C)C)[S][Pt-2]5([Cl])[n+]5ccccc54)n3)n1[B-]2(F)F (stereo not drawn) [Compound 7b],0.47 ± 0.05,–,distributed throughout the cytoplasm,diffusely cytosolic distribution,0.38 ± 0.03
